Results are given in words; binding and its absence hold for the method and conditions named. In cells and extracts the contact can be indirect. Some binding calls cover weakened binding; strength is not graded here.

For the assay, the target named is full-length human NF-κB (p65) (human), Q04206. In words: co-immunoprecipitation with an NF-κB(p65) antibody, Western blotting against I-κBα. The settings on record: remark: other sources report otherwise. A general note: A western blot detects proteins with antibodies after separation by electrophoresis.

B1: full-length human I-κBα (free form), P25963 1-317 (protein, UniProt P25963 1-317, looked up, not shown: small tags and cut ends)
chain: MFQAAERPQEWAMEGPRDGLKKERLLDDRHDSGLDSMKDEEYEQMVKELQEIRLEPQEVPRGSEPWKQQLTEDGDSFLHLAIIHEEKALTMEVIRQVKGDLAFLNFQNNLQQTPLHLAVITNQPEIAEALLGAGCDPELRDFRGNTPLHLACEQGCLASVGVLTQSCTTPHLHSILKATNYNGHTCLHLASIHGYLGIVELLVSLGADVNAQEPCNGRTALHLAVDLQNPDLVSLLLKCGADVNRVTYQGYSPYQLTWGRPSTRIQQQLGQLTLENLQMLPESEDEESYDTESEFTEFTEDELPYDDCVFGGQRLTL
On to B1, for which the binding entry was “binds”.

The values are drawn from patent publication US20060286608A1, “Method for screening transglutaminase 2 inhibitor or activator” (priority 2005, published 2006).
